Experimental data published in US20200348280A1, “METHODS FOR PREDICTING CANCER DRUG RESPONSIVENESS” (Eutropics Pharmaceuticals, Inc., priority 2018, published 2020).
At least one compound was matched to its structure with a doubt left.

How the values were obtained:
HCC1937 = test: Drug response (cell viability) in breast cancer cells; assay type: cell-based; details: HCC1937 human breast cancer cells
Description: (§1) FIG. 16A, and FIG. 16B are graphs showing drug response to A1331852 in breast cancer (BC) cells.
(§2) Drug response to the Bcl-xL inhibitor, A-1331852, or the MEK inhibitor, Selumetinib, was compared in two types of human breast cancer cells, HCC1937 and BT-474, as shown in FIG. 16A and FIG. 16B. […] Immunofluorescence (IF) stainings of the HSBXB antibody and the Bcl-XL inhibitor, A-1331852, are shown in FIG. 17 in untreated human breast cancer cells, HCC1937 and BT-474. IF stainings and relative signal intensity were obtained from human breast cancer cells, HCC1937, treated with or without the A-1331852 inhibitor, or treated with or without the HSBXB antibody, as shown in FIG. 18.

BT-474 = test: as above; assay type: cell-based; details: BT-474 human breast cancer cells
Description: as §1, §2

Structure (SMILES): Cn1cnc2c(F)c(Nc3ccc(Br)cc3Cl)c(C(=O)NOCCO)cc21 [Selumetinib]
- cell viability (HCC1937): did not decrease cell viability
- cell viability (BT-474): did not decrease cell viability
